The supplement of paper PMC9233669
Variants at the background level are over-represented here.

Experiments:
biotinyl-Val-oxazolone = assay: self-aminoacylation, catalytic enhancement (BVO) (fold over background); higher = more active; k-Seq, kA / k0A0; sequences stand for … in GGGAAUGGAUCCACAUCUACGAAUUC…UUCACUGCAGACUUGACGAAGCUG
Outline: (§1)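 Working in 50 μL HEPES/NaCl/KCl/MgCl2/CaCl2 buffer with 5% acetonitrile at pH 6.9–7.0, mutagenized RNA pools (0.43 μM; 21-nt variable region) were reacted with 2–1250 μM of each biotinyl-aminoacyl-oxazolone for 90 minutes at room temperature. Streptavidin capture followed, with quantification by triplicate qPCR and Illumina sequencing. Catalytic enhancement is reported as median kA over the uncatalyzed rate, the low-activity peak of a bimodal Gaussian fit to the data.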

biotinyl-Ile-oxazolone = assay: self-aminoacylation, catalytic enhancement (BIO) (fold over background); higher = more active; k-Seq, kA / k0A0; sequences stand for … in GGGAAUGGAUCCACAUCUACGAAUUC…UUCACUGCAGACUUGACGAAGCUG
Outline: as §1

biotinyl-Met-oxazolone = assay: self-aminoacylation, catalytic enhancement (BMO) (fold over background); higher = more active; k-Seq, kA / k0A0; sequences stand for … in GGGAAUGGAUCCACAUCUACGAAUUC…UUCACUGCAGACUUGACGAAGCUG
Outline: as §1

For “AACUUUGCUAACAGUCGCAAG [Fam3.1 aminoacylation ribozyme variant]”, the self-aminoacylation (biotinyl-Val-oxazolone) was 1.95.
In the case of “AACUUUGCUCAUAGUCGCAAG [Fam3.1 aminoacylation ribozyme variant]”, the self-aminoacylation (biotinyl-Val-oxazolone) is reported as 1.91.
“AAGUCUGCUAAUAGUCACAAG [Fam3.1 aminoacylation ribozyme variant]” was tested, and the self-aminoacylation (biotinyl-Ile-oxazolone) was 1.24, the self-aminoacylation (biotinyl-Val-oxazolone) was 1.25 and the self-aminoacylation (biotinyl-Met-oxazolone) was 1.95.
“AAGUUUGCUAAUAGUAGCAAU [Fam3.1 aminoacylation ribozyme variant]” showed a self-aminoacylation (biotinyl-Ile-oxazolone) of 1.32, a self-aminoacylation (biotinyl-Val-oxazolone) of 1.32 and a self-aminoacylation (biotinyl-Met-oxazolone) of 1.57.
“AAUACCCUGUUCAUCGAGUGA [Fam2.1 aminoacylation ribozyme variant]” gave a self-aminoacylation (biotinyl-Ile-oxazolone) of 1.85.
“AGGUUUGCUAGUAGUCGCAAG [Fam3.1 aminoacylation ribozyme variant]” showed a self-aminoacylation (biotinyl-Ile-oxazolone) of 0.918 and a self-aminoacylation (biotinyl-Val-oxazolone) of 0.894.
With “AGUACCCUGGUCAUCGAUUGA [Fam2.1 aminoacylation ribozyme variant]” the self-aminoacylation (biotinyl-Ile-oxazolone) was 1.09 and the self-aminoacylation (biotinyl-Val-oxazolone) was 0.981.
For “AUCACCCUGGUCAUCAAGUGA [Fam2.1 aminoacylation ribozyme variant]”, the self-aminoacylation (biotinyl-Ile-oxazolone) was 1.74.
With “AUCACCCUGGUCAUCGAGUGC [Fam2.1 aminoacylation ribozyme variant]” the self-aminoacylation (biotinyl-Ile-oxazolone) was 1.56 and the self-aminoacylation (biotinyl-Val-oxazolone) was 1.54.
With “AUCACCCUGGUCAUCGAGUUA [Fam2.1 aminoacylation ribozyme variant]” the self-aminoacylation (biotinyl-Ile-oxazolone) was 1.78 and the self-aminoacylation (biotinyl-Val-oxazolone) was 1.74.
With “AUGACCCUGGUCAUCAAGUGA [Fam2.1 aminoacylation ribozyme variant]” the self-aminoacylation (biotinyl-Ile-oxazolone) was 1.3 and the self-aminoacylation (biotinyl-Val-oxazolone) was 1.46.
With “AUGCACCUAGGUCAUCGGGAG [Fam2.2 aminoacylation ribozyme variant]” the self-aminoacylation (biotinyl-Ile-oxazolone) was 1.56 and the self-aminoacylation (biotinyl-Val-oxazolone) was 1.51.
“AUUAACCUAGGUCAUCGCGUG [Fam2.2 aminoacylation ribozyme variant]” gave a self-aminoacylation (biotinyl-Ile-oxazolone) of 4.57 and a self-aminoacylation (biotinyl-Val-oxazolone) of 4.66.
Sequence “AUUAACCUAGUUCAUCGGGUG [Fam2.2 aminoacylation ribozyme variant]” has a self-aminoacylation (biotinyl-Ile-oxazolone) of 1.78 and a self-aminoacylation (biotinyl-Val-oxazolone) of 1.6.
For “AUUACCCGAGUCAUCGAGUGA [Fam2.1 aminoacylation ribozyme variant]”, the self-aminoacylation (biotinyl-Ile-oxazolone) was 4.27, the self-aminoacylation (biotinyl-Val-oxazolone) was 4.68 and the self-aminoacylation (biotinyl-Met-oxazolone) was 8.55.
Work on “AUUACCCUGAUCAGCGAGUGA [Fam2.1 aminoacylation ribozyme variant]” yielded a self-aminoacylation (biotinyl-Ile-oxazolone) of 1.94.
“AUUACCCUGAUCGUCGAGUGA [Fam2.1 aminoacylation ribozyme variant]” showed a self-aminoacylation (biotinyl-Ile-oxazolone) of 0.89, a self-aminoacylation (biotinyl-Val-oxazolone) of 0.862 and a self-aminoacylation (biotinyl-Met-oxazolone) of 0.75.
Sequence “AUUACCCUGGACACCGAGUGA [Fam2.1 aminoacylation ribozyme variant]” has a self-aminoacylation (biotinyl-Ile-oxazolone) of 2.15, a self-aminoacylation (biotinyl-Val-oxazolone) of 1.83 and a self-aminoacylation (biotinyl-Met-oxazolone) of 4.14.
“AUUACCCUGGUCAUCGAGGUA [Fam2.1 aminoacylation ribozyme variant]” showed a self-aminoacylation (biotinyl-Ile-oxazolone) of 2.38 and a self-aminoacylation (biotinyl-Val-oxazolone) of 3.16.
Work on “AUUACCCUGGUCAUCGUGCGA [Fam2.1 aminoacylation ribozyme variant]” yielded a self-aminoacylation (biotinyl-Ile-oxazolone) of 1.81, a self-aminoacylation (biotinyl-Val-oxazolone) of 1.92 and a self-aminoacylation (biotinyl-Met-oxazolone) of 1.58.
“AUUACCCUGGUCAUCUCGUGA [Fam2.1 aminoacylation ribozyme variant]” showed a self-aminoacylation (biotinyl-Ile-oxazolone) of 1.43 and a self-aminoacylation (biotinyl-Val-oxazolone) of 1.55.
For “AUUACCCUGGUCCUGGAGUGA [Fam2.1 aminoacylation ribozyme variant]”, the self-aminoacylation (biotinyl-Val-oxazolone) was 1.79.
With “AUUACCCUGGUCGUGGAGUGA [Fam2.1 aminoacylation ribozyme variant]” the self-aminoacylation (biotinyl-Ile-oxazolone) was 1.45 and the self-aminoacylation (biotinyl-Val-oxazolone) was 1.26.
“AUUACCCUUGUCAUCGUGUGA [Fam2.1 aminoacylation ribozyme variant]” showed a self-aminoacylation (biotinyl-Ile-oxazolone) of 1.45 and a self-aminoacylation (biotinyl-Val-oxazolone) of 1.7.
“AUUACUCUGGCCAUCGAGUGA [Fam2.1 aminoacylation ribozyme variant]” showed a self-aminoacylation (biotinyl-Val-oxazolone) of 1.66.
For “AUUACUCUGUUCAUCGAGUGA [Fam2.1 aminoacylation ribozyme variant]”, the self-aminoacylation (biotinyl-Ile-oxazolone) was 1.9 and the self-aminoacylation (biotinyl-Val-oxazolone) was 1.94.
For “AUUCACCAAGGUUAUCGGGUG [Fam2.2 aminoacylation ribozyme variant]”, the self-aminoacylation (biotinyl-Ile-oxazolone) was 4.45, the self-aminoacylation (biotinyl-Val-oxazolone) was 4.4 and the self-aminoacylation (biotinyl-Met-oxazolone) was 7.8.
“AUUCACCUAGAUCAUAGGGUG [Fam2.2 aminoacylation ribozyme variant]” was tested, and the self-aminoacylation (biotinyl-Ile-oxazolone) was 1.98.
Work on “AUUCACCUAGGACAUCGGGUA [Fam2.2 aminoacylation ribozyme variant]” yielded a self-aminoacylation (biotinyl-Val-oxazolone) of 1.96.
In the case of “AUUCACCUAGGUAACCGGGUG [Fam2.2 aminoacylation ribozyme variant]”, the self-aminoacylation (biotinyl-Ile-oxazolone) is reported as 1.57 and the self-aminoacylation (biotinyl-Val-oxazolone) is reported as 1.62.
Sequence “AUUCACCUAGGUCAUCGCGUG [Fam2.2 aminoacylation ribozyme variant]” has a self-aminoacylation (biotinyl-Ile-oxazolone) of 7.1 and a self-aminoacylation (biotinyl-Val-oxazolone) of 7.35.
“AUUCACCUAGGUCAUCGGCUC [Fam2.2 aminoacylation ribozyme variant]” showed a self-aminoacylation (biotinyl-Ile-oxazolone) of 2.5, a self-aminoacylation (biotinyl-Val-oxazolone) of 2.22 and a self-aminoacylation (biotinyl-Met-oxazolone) of 2.14.
Work on “AUUCACCUGGGUCCUCGGGUG [Fam2.2 aminoacylation ribozyme variant]” yielded a self-aminoacylation (biotinyl-Ile-oxazolone) of 4.33.
For “AUUCACCUUGGUCAUCGAGUG [Fam2.2 aminoacylation ribozyme variant]”, the self-aminoacylation (biotinyl-Ile-oxazolone) was 2.69 and the self-aminoacylation (biotinyl-Val-oxazolone) was 2.49.
With “AUUCACCUUGGUCAUCUGGUG [Fam2.2 aminoacylation ribozyme variant]” the self-aminoacylation (biotinyl-Ile-oxazolone) was 1.91.
Work on “AUUCACGUAGGUCAGCGGGUG [Fam2.2 aminoacylation ribozyme variant]” yielded a self-aminoacylation (biotinyl-Ile-oxazolone) of 2.48, a self-aminoacylation (biotinyl-Val-oxazolone) of 2.48 and a self-aminoacylation (biotinyl-Met-oxazolone) of 2.52.
Sequence “AUUCACGUAGGUCAUCGAGUG [Fam2.2 aminoacylation ribozyme variant]” has a self-aminoacylation (biotinyl-Ile-oxazolone) of 1.88, a self-aminoacylation (biotinyl-Val-oxazolone) of 1.89 and a self-aminoacylation (biotinyl-Met-oxazolone) of 2.92.
Sequence “AUUCUCCCAGGUCAUCGGGUG [Fam2.2 aminoacylation ribozyme variant]” has a self-aminoacylation (biotinyl-Ile-oxazolone) of 6.87 and a self-aminoacylation (biotinyl-Val-oxazolone) of 6.91.
With “AUUUCCCUGGUCAUCAAGUGA [Fam2.1 aminoacylation ribozyme variant]” the self-aminoacylation (biotinyl-Ile-oxazolone) was 1.53, the self-aminoacylation (biotinyl-Val-oxazolone) was 1.7 and the self-aminoacylation (biotinyl-Met-oxazolone) was 1.95.
For “CAACUUCAAACAAUCGGUCGG [Fam1A.1 aminoacylation ribozyme variant]”, the self-aminoacylation (biotinyl-Ile-oxazolone) was 1.78 and the self-aminoacylation (biotinyl-Val-oxazolone) was 1.69.
In the case of “CCACACUUCAAUCAAUCGGCC [Fam1B.1 aminoacylation ribozyme variant]”, the self-aminoacylation (biotinyl-Ile-oxazolone) is reported as 1.81 and the self-aminoacylation (biotinyl-Met-oxazolone) is reported as 1.39.
“CCACACUUCAUCCAAUCGGUC [Fam1B.1 aminoacylation ribozyme variant]” was tested, and the self-aminoacylation (biotinyl-Ile-oxazolone) was 0.883 and the self-aminoacylation (biotinyl-Val-oxazolone) was 0.912.
Sequence “CCACACUUCAUGCAAUCGGUA [Fam1B.1 aminoacylation ribozyme variant]” has a self-aminoacylation (biotinyl-Ile-oxazolone) of 0.681.
“CCACACUUCCAGCAAUCGUUC [Fam1B.1 aminoacylation ribozyme variant]” showed a self-aminoacylation (biotinyl-Ile-oxazolone) of 1.09 and a self-aminoacylation (biotinyl-Val-oxazolone) of 1.05.
“CCACCCUUCAAGCAAUCGGUA [Fam1B.1 aminoacylation ribozyme variant]” gave a self-aminoacylation (biotinyl-Ile-oxazolone) of 1.4, a self-aminoacylation (biotinyl-Val-oxazolone) of 1.6 and a self-aminoacylation (biotinyl-Met-oxazolone) of 1.38.
Work on “CCACUUCAAACAAUCGGUCGG [Fam1A.1 aminoacylation ribozyme variant]” yielded a self-aminoacylation (biotinyl-Ile-oxazolone) of 1.69, a self-aminoacylation (biotinyl-Val-oxazolone) of 1.55 and a self-aminoacylation (biotinyl-Met-oxazolone) of 1.38.
With “CCAGACGUCAAGCAAUCGGUC [Fam1B.1 aminoacylation ribozyme variant]” the self-aminoacylation (biotinyl-Ile-oxazolone) was 1.24, the self-aminoacylation (biotinyl-Val-oxazolone) was 1.99 and the self-aminoacylation (biotinyl-Met-oxazolone) was 1.52.
“CCAGACUUCAAGCAAUCCGUC [Fam1B.1 aminoacylation ribozyme variant]” gave a self-aminoacylation (biotinyl-Ile-oxazolone) of 1.67, a self-aminoacylation (biotinyl-Val-oxazolone) of 1.58 and a self-aminoacylation (biotinyl-Met-oxazolone) of 1.47.
“CCUCGCUUCAAGCAAUCGGUC [Fam1B.1 aminoacylation ribozyme variant]” was tested, and the self-aminoacylation (biotinyl-Ile-oxazolone) was 1.14, the self-aminoacylation (biotinyl-Val-oxazolone) was 1.33 and the self-aminoacylation (biotinyl-Met-oxazolone) was 1.35.
“CGACUUCAAACAAUCGGUUUG [Fam1A.1 aminoacylation ribozyme variant]” gave a self-aminoacylation (biotinyl-Ile-oxazolone) of 1.61, a self-aminoacylation (biotinyl-Val-oxazolone) of 1.65 and a self-aminoacylation (biotinyl-Met-oxazolone) of 1.44.
In the case of “CUACCUCAACCAAUCGGUCUG [Fam1A.1 aminoacylation ribozyme variant]”, the self-aminoacylation (biotinyl-Ile-oxazolone) is reported as 0.766 and the self-aminoacylation (biotinyl-Val-oxazolone) is reported as 0.891.
With “CUACUUCAAAGAAUCGGCCUG [Fam1A.1 aminoacylation ribozyme variant]” the self-aminoacylation (biotinyl-Ile-oxazolone) was 1.52, the self-aminoacylation (biotinyl-Val-oxazolone) was 1.73 and the self-aminoacylation (biotinyl-Met-oxazolone) was 1.38.
“CUACUUCAAAGUAUCGGUCUG [Fam1A.1 aminoacylation ribozyme variant]” gave a self-aminoacylation (biotinyl-Ile-oxazolone) of 0.979, a self-aminoacylation (biotinyl-Val-oxazolone) of 0.975 and a self-aminoacylation (biotinyl-Met-oxazolone) of 0.824.
“CUAUUUCAAACAAUCGGUCUA [Fam1A.1 aminoacylation ribozyme variant]” gave a self-aminoacylation (biotinyl-Ile-oxazolone) of 0.713 and a self-aminoacylation (biotinyl-Val-oxazolone) of 0.588.
For “CUGCUUCAAACAAUCGGUGUG [Fam1A.1 aminoacylation ribozyme variant]”, the self-aminoacylation (biotinyl-Ile-oxazolone) was 1.92 and the self-aminoacylation (biotinyl-Val-oxazolone) was 1.8.
For “CUUCUGCAAACAAUCGGUCUG [Fam1A.1 aminoacylation ribozyme variant]”, the self-aminoacylation (biotinyl-Ile-oxazolone) was 0.957 and the self-aminoacylation (biotinyl-Val-oxazolone) was 0.889.
“GCACUCUUCAAGCAAUCGGUC [Fam1B.1 aminoacylation ribozyme variant]” gave a self-aminoacylation (biotinyl-Ile-oxazolone) of 1.75, a self-aminoacylation (biotinyl-Val-oxazolone) of 1.59 and a self-aminoacylation (biotinyl-Met-oxazolone) of 1.38.
“GUUACCCUGGUCGUCGAGUGA [Fam2.1 aminoacylation ribozyme variant]” gave a self-aminoacylation (biotinyl-Ile-oxazolone) of 1.5 and a self-aminoacylation (biotinyl-Val-oxazolone) of 1.6.
With “UAACUUCAAACAAUCGGUCUG [Fam1A.1 aminoacylation ribozyme variant]” the self-aminoacylation (biotinyl-Ile-oxazolone) was 1.38, the self-aminoacylation (biotinyl-Val-oxazolone) was 1.54 and the self-aminoacylation (biotinyl-Met-oxazolone) was 1.52.
